# From the supplement of paper PMC10849652
# Sequences of proteins named here, by UniProt entry; tags and fusion partners are left off. A change or cut given only in a name is not applied to a line headed by its entry.
# UniProt Q07866: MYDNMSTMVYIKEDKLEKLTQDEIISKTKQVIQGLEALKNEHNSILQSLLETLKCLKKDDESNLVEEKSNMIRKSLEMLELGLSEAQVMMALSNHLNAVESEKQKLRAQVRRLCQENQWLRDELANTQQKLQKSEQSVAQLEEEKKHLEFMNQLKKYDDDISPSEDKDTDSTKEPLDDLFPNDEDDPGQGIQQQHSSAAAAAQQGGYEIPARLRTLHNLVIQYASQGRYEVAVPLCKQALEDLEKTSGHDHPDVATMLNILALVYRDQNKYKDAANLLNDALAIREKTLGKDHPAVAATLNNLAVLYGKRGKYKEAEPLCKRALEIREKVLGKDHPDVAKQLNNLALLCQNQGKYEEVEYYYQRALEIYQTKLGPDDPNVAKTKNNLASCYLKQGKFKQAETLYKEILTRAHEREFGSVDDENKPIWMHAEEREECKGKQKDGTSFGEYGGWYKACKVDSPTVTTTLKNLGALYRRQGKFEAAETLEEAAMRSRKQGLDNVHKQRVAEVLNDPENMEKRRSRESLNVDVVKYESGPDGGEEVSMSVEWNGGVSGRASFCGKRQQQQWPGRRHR
# UniProt Q9Y2M5: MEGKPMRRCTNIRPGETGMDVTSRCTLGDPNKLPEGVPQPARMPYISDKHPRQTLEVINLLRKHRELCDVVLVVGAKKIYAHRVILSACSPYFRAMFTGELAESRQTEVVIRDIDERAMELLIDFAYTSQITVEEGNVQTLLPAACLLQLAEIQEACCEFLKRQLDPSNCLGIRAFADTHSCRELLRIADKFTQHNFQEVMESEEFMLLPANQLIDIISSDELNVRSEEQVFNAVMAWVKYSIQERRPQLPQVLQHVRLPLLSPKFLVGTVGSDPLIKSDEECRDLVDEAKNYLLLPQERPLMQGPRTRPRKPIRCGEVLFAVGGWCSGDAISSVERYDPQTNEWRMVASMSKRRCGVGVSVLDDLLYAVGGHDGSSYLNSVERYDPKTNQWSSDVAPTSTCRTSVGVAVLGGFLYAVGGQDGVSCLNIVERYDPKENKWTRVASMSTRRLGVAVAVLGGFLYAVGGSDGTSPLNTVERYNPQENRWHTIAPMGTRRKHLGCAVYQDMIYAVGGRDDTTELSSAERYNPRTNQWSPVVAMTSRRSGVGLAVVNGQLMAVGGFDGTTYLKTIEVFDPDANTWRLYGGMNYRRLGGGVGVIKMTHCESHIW
# UniProt A6NCN2: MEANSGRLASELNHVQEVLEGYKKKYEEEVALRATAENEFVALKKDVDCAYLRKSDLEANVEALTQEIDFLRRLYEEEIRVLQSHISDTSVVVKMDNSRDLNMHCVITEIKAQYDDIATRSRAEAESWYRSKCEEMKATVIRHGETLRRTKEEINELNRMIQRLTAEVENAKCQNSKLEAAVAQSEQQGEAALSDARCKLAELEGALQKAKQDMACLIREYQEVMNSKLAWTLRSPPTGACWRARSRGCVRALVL
# UniProt Q8IXQ5, whole entry, looked up: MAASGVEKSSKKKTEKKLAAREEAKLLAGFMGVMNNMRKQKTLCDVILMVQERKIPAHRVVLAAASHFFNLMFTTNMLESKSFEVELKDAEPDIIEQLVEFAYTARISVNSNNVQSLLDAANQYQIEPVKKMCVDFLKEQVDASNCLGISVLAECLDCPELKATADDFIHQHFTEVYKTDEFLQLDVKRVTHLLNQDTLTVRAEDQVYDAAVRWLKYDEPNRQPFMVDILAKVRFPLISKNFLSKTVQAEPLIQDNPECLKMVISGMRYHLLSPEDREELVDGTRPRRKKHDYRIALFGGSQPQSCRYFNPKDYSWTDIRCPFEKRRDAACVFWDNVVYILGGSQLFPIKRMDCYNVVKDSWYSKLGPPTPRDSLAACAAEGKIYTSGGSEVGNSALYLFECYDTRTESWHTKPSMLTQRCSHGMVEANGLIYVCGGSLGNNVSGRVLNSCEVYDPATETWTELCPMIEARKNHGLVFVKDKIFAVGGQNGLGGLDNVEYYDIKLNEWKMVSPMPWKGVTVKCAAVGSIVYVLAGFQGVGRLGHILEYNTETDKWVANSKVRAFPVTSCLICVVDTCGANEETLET
# UniProt O75037: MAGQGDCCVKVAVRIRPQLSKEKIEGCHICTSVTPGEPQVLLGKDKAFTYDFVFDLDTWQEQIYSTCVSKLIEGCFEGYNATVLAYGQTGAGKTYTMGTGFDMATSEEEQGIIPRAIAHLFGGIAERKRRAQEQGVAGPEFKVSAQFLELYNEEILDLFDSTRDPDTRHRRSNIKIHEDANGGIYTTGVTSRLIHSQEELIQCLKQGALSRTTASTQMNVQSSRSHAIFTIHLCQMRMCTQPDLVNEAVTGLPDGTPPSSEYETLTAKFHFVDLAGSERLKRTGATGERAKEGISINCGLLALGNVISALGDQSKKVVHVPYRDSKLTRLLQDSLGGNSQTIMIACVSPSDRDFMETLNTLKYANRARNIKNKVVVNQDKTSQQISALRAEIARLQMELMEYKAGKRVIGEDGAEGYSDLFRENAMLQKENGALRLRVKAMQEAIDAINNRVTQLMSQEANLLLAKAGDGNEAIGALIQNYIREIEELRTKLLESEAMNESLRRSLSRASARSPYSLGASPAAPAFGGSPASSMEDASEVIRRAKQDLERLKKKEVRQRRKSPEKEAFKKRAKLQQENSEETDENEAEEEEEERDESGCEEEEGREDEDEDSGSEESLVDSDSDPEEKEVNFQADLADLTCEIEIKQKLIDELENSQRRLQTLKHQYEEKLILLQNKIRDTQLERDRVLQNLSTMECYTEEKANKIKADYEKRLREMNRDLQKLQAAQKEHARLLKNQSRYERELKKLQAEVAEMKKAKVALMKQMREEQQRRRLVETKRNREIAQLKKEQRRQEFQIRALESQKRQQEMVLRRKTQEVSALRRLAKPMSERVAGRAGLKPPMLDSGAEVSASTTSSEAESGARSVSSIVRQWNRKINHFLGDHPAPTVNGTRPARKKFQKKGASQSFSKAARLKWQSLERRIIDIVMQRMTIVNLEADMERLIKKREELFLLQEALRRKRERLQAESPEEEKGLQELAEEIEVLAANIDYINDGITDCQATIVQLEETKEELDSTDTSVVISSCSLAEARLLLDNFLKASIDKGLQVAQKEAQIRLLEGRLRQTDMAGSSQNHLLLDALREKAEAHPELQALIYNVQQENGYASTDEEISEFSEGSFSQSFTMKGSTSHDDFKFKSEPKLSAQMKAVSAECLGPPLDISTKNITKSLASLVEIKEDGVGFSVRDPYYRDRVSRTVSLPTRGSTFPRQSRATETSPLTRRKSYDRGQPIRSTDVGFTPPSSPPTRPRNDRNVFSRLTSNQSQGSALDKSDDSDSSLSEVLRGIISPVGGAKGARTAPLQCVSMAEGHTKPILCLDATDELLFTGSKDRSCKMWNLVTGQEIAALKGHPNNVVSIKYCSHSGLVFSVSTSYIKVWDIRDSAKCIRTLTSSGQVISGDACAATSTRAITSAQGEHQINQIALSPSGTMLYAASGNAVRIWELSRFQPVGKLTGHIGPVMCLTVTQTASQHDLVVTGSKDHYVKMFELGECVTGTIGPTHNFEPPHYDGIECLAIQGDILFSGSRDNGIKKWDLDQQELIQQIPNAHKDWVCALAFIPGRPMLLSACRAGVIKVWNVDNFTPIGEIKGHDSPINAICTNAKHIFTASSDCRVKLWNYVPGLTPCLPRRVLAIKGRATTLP
# UniProt Q86VI4: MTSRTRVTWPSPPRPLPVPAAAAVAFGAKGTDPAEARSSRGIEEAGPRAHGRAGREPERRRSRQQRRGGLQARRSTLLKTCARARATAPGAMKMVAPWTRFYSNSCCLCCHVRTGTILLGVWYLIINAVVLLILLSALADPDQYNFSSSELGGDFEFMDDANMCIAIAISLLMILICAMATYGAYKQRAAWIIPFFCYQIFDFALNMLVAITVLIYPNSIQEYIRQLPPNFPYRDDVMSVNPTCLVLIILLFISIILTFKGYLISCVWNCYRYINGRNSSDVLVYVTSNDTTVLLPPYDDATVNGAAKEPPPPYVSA
# UniProt Q969R5, whole entry, looked up: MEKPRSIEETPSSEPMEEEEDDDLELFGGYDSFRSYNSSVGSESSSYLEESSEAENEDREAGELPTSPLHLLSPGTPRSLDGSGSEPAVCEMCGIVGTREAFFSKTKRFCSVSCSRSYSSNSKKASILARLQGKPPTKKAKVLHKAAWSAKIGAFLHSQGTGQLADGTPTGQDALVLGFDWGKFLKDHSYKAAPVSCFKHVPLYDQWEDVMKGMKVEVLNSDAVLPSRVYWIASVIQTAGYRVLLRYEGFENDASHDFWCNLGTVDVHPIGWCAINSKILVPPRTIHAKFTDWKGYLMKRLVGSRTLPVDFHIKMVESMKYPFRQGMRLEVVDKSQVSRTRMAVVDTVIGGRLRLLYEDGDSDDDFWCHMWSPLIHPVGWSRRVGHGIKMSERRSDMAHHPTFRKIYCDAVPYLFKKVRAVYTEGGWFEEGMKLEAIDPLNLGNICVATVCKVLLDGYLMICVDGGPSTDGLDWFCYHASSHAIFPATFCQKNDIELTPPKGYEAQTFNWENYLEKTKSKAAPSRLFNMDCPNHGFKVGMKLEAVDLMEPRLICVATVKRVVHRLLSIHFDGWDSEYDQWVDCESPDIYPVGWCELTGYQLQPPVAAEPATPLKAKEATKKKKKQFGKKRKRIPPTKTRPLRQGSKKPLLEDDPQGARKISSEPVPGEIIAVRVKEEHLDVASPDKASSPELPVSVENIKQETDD
# UniProt Q86Y91: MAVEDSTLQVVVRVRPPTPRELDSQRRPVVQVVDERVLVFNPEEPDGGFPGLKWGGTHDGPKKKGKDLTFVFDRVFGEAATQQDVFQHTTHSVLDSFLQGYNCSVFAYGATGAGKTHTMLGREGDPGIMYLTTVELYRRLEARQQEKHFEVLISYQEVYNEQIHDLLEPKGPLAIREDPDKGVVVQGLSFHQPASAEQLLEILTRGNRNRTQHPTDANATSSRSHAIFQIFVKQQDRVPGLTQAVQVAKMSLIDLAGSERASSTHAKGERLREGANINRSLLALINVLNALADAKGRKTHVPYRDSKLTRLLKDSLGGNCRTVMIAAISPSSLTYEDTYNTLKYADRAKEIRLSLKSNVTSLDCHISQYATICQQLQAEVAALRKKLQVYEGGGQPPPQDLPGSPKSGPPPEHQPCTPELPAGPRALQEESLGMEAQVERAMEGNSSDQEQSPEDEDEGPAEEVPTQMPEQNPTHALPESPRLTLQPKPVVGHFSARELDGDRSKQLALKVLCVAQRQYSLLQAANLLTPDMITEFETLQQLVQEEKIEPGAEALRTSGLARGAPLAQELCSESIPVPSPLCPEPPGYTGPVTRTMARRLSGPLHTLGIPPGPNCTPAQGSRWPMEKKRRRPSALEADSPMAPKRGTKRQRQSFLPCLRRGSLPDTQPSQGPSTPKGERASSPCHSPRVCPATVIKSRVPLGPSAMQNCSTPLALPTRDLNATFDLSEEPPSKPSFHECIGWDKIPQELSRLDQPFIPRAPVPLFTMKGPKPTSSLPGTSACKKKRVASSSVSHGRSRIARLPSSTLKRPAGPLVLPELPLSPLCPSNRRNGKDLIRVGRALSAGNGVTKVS
# UniProt Q96MU8: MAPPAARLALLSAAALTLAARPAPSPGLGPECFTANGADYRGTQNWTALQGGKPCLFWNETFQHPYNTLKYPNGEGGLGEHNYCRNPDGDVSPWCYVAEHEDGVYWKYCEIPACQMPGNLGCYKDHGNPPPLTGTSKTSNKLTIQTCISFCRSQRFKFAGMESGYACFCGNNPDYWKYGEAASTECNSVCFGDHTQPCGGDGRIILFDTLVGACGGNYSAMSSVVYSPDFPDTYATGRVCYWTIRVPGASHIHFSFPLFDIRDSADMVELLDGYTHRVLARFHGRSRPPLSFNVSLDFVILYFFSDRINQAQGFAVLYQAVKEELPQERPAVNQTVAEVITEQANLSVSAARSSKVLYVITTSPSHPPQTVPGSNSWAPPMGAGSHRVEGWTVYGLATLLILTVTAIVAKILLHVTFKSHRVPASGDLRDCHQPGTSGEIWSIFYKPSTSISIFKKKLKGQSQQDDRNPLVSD
# UniProt Q969F8, whole entry, looked up: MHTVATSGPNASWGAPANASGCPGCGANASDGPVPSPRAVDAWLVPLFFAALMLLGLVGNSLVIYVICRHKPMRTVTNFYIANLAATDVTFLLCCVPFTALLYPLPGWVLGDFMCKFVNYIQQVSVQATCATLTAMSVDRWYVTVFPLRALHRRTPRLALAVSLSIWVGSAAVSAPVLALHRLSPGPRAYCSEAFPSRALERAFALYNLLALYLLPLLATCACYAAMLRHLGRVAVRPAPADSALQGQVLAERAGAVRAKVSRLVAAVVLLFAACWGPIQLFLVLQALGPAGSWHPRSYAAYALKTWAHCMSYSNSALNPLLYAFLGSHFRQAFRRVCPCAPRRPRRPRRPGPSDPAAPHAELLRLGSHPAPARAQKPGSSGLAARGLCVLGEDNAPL
# This is one part of the list.
# Tests used:
# Experiment in all cases: log2 fold change, soluble protein after heating vs DMSO (PISA); higher = thermal stabilisation; K562 lysate, 10 uM; active = over 0.2 and 3.5 SD of the protein, either way, in both replicates (recomputed)
# vorinostat = compound: O=C(CCCCCCC(=O)Nc1ccccc1)NO [vorinostat]
# Procedure, shortened: (§1)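 K562 pellets were dounce-homogenised in PBS pH 7.4 with 1 mM MgCl2, and the crude extract at 1 mg/mL protein was treated with 10 μM compound for 30 min. Aliquots were heated for 3 min across 48°C-58°C, pooled, and brought to 0.5% NP-40 at 4°C; soluble protein was the supernatant after 21,000xg for 90 min. Soluble protein was quantified by TMTpro 16plex LC-MS/MS with channel sums equalised, and reported as log2 fold change in thermal stability against DMSO controls, with values from duplicates.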
# silmitasertib = compound: O=C(O)c1ccc2c(c1)nc(Nc1cccc(Cl)c1)c1ccncc12 [silmitasertib]
# Procedure, shortened: as §1
# entospletinib = compound: c1cn2cc(-c3ccc4cn[nH]c4c3)nc(Nc3ccc(N4CCOCC4)cc3)c2n1 [entospletinib]
# Procedure, shortened: as §1
# [1] = compound: O=C1NC(=O)C(c2cnc3ccccn23)=C1c1cn2c3c(cc(F)cc13)CN(C(=O)N1CCCCC1)CC2
# Procedure, shortened: as §1
# [2] = compound: NCC(=O)Nc1ccc(-n2nc(C(F)(F)F)cc2-c2ccc3c(ccc4ccccc43)c2)cc1
# Procedure, shortened: as §1
Target,log2 fold change (vorinostat),log2 fold change (silmitasertib),log2 fold change (entospletinib),log2 fold change [1],log2 fold change [2]
KLC1 isoform 10 (UniProt Q07866),inactive: -0.144,inactive: -0.165,inactive: -0.171,–,–
KLHL20 (UniProt Q9Y2M5),inactive: 0.039,inactive: -0.07,inactive: -0.075,inactive: 0.014,–
KRT13 (UniProt K7EMD9),inactive: 0.227,inactive: -0.362,–,–,–
KRT87P (UniProt A6NCN2),inactive: 0.074,inactive: 0.011,–,–,–
KLHL7 isoform 3 (UniProt Q8IXQ5),–,–,inactive: -0.087,inactive: 0.002,inactive: 0.112
KIF21B (UniProt O75037),–,–,inactive: 0.064,inactive: 0.02,inactive: 0.229
KIAA0930 isoform 2 (UniProt Q6ICG6),–,–,inactive: 0.062,inactive: -0.057,inactive: 0.046
KLHL42 (UniProt Q9P2K6),inactive: 0.08,inactive: -0.037,–,inactive: 0.054,–
LAPTM4B (UniProt Q86VI4),inactive: 0.044,inactive: -0.043,–,–,–
L3MBTL2 (UniProt Q969R5),–,–,inactive: -0.002,inactive: -0.023,–
KIF18B (UniProt Q86Y91),–,–,inactive: -0.035,inactive: -0.098,–
KMT2B (UniProt Q9UMN6),inactive: 0.531,active: -0.76,inactive: 0.116,inactive: 0.211,–
KREMEN1 isoform 2 (UniProt Q96MU8),–,–,–,inactive: 0.206,–
KISS1R (UniProt Q969F8),–,–,–,inactive: 0,–

# Shown with tabs: part of the list above
Target	log2 fold change (vorinostat)	log2 fold change (silmitasertib)	log2 fold change (entospletinib)	log2 fold change [1]	log2 fold change [2]
KRT13 (UniProt K7EMD9)	inactive: 0.227	inactive: -0.362	–	–	–
KRT87P (UniProt A6NCN2)	inactive: 0.074	inactive: 0.011	–	–	–
